The text below walks through data of patent US20100190199A1, “GPR30 ESTROGEN RECEPTOR IN BREAST AND OVARIAN CANCERS” (Rhode Island Hospital, priority 2008, published 2010).

Amino acid sequences for entries named in this document (tags omitted). A change or cut given only in a name is not applied to a line headed by its entry.
UniProt P08648: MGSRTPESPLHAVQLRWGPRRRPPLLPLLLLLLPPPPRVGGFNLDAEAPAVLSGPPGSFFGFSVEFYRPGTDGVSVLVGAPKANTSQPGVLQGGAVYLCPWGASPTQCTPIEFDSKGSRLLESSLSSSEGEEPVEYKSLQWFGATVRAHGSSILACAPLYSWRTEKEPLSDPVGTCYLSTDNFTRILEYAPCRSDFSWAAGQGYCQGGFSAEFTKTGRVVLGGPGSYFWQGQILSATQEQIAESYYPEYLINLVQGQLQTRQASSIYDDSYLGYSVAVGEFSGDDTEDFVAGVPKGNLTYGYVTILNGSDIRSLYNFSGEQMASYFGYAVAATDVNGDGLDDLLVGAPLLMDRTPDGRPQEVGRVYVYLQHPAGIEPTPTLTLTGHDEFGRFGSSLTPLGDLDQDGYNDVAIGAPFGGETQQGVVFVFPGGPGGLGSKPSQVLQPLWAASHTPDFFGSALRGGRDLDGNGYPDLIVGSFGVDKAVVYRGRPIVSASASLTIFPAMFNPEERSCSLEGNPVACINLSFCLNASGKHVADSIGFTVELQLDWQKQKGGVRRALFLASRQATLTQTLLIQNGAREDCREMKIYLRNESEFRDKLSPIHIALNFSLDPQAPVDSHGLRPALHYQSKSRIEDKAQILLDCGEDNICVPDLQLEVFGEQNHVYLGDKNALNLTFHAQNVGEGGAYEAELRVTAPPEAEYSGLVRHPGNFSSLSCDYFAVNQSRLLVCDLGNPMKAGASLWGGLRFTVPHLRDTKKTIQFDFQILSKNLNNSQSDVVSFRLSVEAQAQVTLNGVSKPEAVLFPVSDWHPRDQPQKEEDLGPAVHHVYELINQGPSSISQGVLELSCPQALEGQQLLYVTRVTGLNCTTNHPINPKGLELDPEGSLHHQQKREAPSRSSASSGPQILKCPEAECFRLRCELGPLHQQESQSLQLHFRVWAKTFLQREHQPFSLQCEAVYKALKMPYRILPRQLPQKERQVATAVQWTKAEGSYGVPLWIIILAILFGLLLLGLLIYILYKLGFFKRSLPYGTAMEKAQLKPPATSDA

In this experiment the target is integrin α5β1 (UniProt P08648). In words: complex formation in human breast cancer cells after GPR30 stimulation; method not described.

No constants are given. Whether binding was seen depends on the method and setting. Some binding calls cover weakened binding; strength is not graded here.

B1: Mutant Shc (317Y/F) (protein, UniProt P29353-2 1-473, looked up)
chain: MNKLSGGGGRRTRVEGGQLGGEEWTRHGSFVNKPTRGWLHPNDKVMGPGVSYLVRYMGCVEVLQSMRALDFNTRTQVTREAISLVCEAVPGAKGATRRRKPCSRPLSSILGRSNLKFAGMPITLTVSTSSLNLMAADCKQIIANHHMQSISFASGGDPDTAEYVAYVAKDPVNQRACHILECPEGLAQDVISTIGQAFELRFKQYLRNPPKLVTPHDRMAGFDGSAWDEEEEEPPDHQYYNDFPGKEPPLGGVVDMRLREGAAPGAARPTAPNAQTPSHLGATLPVGQPVGGDPEVRKQMPPPPPCPGRELFDDPSFVNVQNLDKARQAVGGAGPPNPAINGSAPRDLFDMKPFEDALRVPPPPQSVSMAEQLRGEPWFHGKLSRREAEALLQLNGDFLVRESTTTPGQYVLTGLQSGQPKHLLLVDPEGVVRTKDHRFESVSHLISYHMDNHLPIISAGSELCLQQPVERKL
In the case of B1, the binding result was “binds”.
